In data set [1] the test system is cBMAL1-cCLOCK heterodimer (Gallus gallus). The experiment in a line: activity in cells. The settings on record: protein in cells, protein details: expressed in 293EBNA cells, only the site is given.
Data set [2] relates to cBMAL2-cCLOCK heterodimer (Gallus gallus). The experiment in a line: activity in cells. The following applies: protein in cells, protein details: expressed in 293EBNA cells, only the site is given.
Setting [3] is: luciferase transactivation in 293EBNA cells.

Chains of the proteins cited; added tags and fusions are not shown. Chains listed by the source or under a name are the forms on record and can include a tag or linker.
cBMAL1-cCLOCK heterodimer (Gallus gallus), one chain, as listed by the source, chain 2 of 2: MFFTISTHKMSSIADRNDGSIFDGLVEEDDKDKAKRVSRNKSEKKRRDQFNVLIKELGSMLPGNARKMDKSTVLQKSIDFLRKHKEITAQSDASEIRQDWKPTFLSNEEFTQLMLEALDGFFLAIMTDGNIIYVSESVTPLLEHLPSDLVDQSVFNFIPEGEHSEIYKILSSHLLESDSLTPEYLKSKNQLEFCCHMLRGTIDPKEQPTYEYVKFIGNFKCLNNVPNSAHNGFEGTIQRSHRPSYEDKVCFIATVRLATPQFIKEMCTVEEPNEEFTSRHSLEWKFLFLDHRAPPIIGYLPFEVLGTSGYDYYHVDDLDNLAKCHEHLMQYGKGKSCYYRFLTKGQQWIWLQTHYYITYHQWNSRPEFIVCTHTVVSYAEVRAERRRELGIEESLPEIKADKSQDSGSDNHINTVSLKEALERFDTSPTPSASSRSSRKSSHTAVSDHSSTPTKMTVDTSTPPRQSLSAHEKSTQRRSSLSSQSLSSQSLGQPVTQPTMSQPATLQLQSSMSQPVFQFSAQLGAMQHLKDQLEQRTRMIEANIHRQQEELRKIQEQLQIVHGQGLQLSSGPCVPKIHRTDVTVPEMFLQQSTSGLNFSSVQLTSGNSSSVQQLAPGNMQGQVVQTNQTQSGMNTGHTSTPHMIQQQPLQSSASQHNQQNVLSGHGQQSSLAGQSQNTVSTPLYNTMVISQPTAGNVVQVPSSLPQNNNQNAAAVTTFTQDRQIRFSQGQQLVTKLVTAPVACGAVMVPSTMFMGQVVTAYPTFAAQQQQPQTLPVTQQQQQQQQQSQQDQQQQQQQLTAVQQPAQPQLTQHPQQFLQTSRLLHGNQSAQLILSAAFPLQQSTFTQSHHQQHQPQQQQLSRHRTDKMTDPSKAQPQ
cBMAL2-cCLOCK heterodimer (Gallus gallus), one chain, as listed by the source, chain 1 of 2: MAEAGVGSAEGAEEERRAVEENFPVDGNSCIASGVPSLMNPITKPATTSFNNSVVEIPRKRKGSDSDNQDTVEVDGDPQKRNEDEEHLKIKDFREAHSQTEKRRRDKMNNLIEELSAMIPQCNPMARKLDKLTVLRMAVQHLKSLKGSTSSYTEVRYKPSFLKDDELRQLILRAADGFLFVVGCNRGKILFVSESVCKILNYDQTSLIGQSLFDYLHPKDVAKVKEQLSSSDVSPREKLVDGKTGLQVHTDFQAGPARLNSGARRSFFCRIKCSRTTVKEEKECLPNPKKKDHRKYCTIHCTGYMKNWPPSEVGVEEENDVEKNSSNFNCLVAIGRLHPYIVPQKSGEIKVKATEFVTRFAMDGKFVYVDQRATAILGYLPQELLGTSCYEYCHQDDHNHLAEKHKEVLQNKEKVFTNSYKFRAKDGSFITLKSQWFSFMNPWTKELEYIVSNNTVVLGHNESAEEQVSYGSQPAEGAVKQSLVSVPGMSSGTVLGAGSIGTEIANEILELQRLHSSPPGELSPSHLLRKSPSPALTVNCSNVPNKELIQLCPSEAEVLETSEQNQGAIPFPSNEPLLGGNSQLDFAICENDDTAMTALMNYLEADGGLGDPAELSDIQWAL
cBMAL1-cCLOCK heterodimer (Gallus gallus), one chain, as listed by the source, chain 1 of 2: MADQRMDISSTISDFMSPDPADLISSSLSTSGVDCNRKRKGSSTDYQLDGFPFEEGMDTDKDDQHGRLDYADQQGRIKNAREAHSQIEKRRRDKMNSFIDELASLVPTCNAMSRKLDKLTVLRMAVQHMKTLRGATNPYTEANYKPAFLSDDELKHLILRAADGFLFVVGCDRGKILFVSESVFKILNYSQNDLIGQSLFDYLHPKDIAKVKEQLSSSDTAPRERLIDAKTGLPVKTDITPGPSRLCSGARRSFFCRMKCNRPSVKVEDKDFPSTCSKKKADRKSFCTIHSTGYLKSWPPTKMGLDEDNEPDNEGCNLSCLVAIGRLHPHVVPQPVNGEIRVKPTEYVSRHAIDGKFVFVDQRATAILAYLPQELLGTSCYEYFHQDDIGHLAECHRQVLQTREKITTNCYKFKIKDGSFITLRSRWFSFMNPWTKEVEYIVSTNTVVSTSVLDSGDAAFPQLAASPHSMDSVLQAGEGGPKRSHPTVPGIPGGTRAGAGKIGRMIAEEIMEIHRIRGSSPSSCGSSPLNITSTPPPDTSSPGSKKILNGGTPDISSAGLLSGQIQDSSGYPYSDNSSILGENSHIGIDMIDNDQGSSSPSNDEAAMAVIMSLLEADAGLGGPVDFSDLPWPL

As for “GTGTCACACGTGAGGCTTAGTGTCACACGTGAGGCTTAGTGTCACACGTGAGGCTTA (double strand) [cPer2 E-box-luc (3 tandem copies)]”, the “activity on this sequence” value in data set [1] (setting [3]) and in data set [2] (setting [3]) was “active” each time.
For the sequence “TCAGGCCCACGTGTCCCA (double strand) [mouse vasopressin E-box-luc]”, the “activity on this sequence” value in data set [1] (transactivation enhanced by 10 ng cBmal2 plasmid) and in data set [2] (transactivation suppressed at high cBmal2 dose) was “active” each time.
